The source gives many values for each of these; only a part stands here.
Experiments:
Assay type in all cases: cell-based
Settings in all cases: U-87MG ATCC
[1] = Inhibition of RTK/PI3K/AKT/mTOR signaling in human U87 cells assessed as up regulation of ORAI calcium release-activated calcium modulator 2 gene expression at cytotoxic IC50 measured after 48 hrs relative to control
[2] = Inhibition of RTK/PI3K/AKT/mTOR signaling in human U87 cells assessed as up regulation of ATP2A2 gene expression at cytotoxic IC50 measured after 48 hrs relative to control
[3] = Inhibition of RTK/PI3K/AKT/mTOR signaling in human U87 cells assessed as down regulation of PLEKHF2 gene expression at cytotoxic IC50 measured after 48 hrs relative to control
[4] = Inhibition of RTK/PI3K/AKT/mTOR signaling in human U87 cells assessed as up regulation of SH3PXD2A gene expression at cytotoxic IC50 measured after 48 hrs relative to control
[5] = Inhibition of RTK/PI3K/AKT/mTOR signaling in human U87 cells assessed as up regulation of WD repeat domain 54 gene expression at cytotoxic IC50 measured after 48 hrs relative to control
[6] = Inhibition of RTK/PI3K/AKT/mTOR signaling in human U87 cells assessed as up regulation of USH1G gene expression at cytotoxic IC50 measured after 48 hrs relative to control
[7] = Inhibition of RTK/PI3K/AKT/mTOR signaling in human U87 cells assessed as down regulation of TACC3 gene expression at cytotoxic IC50 measured after 48 hrs relative to control
[8] = Inhibition of RTK/PI3K/AKT/mTOR signaling in human U87 cells assessed as up regulation of small integral membrane protein 3 gene expression at cytotoxic IC50 measured after 48 hrs relative to control
[9] = Inhibition of RTK/PI3K/AKT/mTOR signaling in human U87 cells assessed as up regulation of KITLG gene expression at cytotoxic IC50 measured after 48 hrs relative to control
[10] = Inhibition of RTK/PI3K/AKT/mTOR signaling in human U87 cells assessed as down regulation of DHRS7 gene expression at cytotoxic IC50 measured after 48 hrs relative to control
[11] = Inhibition of RTK/PI3K/AKT/mTOR signaling in human U87 cells assessed as up regulation of VEGFA gene expression at cytotoxic IC50 measured after 48 hrs relative to control
[12] = Inhibition of RTK/PI3K/AKT/mTOR signaling in human U87 cells assessed as down regulation of COPS5 gene expression at cytotoxic IC50 measured after 48 hrs relative to control
[13] = Inhibition of RTK/PI3K/AKT/mTOR signaling in human U87 cells assessed as up regulation of ras-related C3 botulinum toxin substrate 3 (rho family, small GTP binding protein Rac3) gene expression at cytotoxic IC50 measured after 48 hrs relative to control
[14] = Inhibition of RTK/PI3K/AKT/mTOR signaling in human U87 cells assessed as up regulation of STK25 gene expression at cytotoxic IC50 measured after 48 hrs relative to control
[15] = Inhibition of RTK/PI3K/AKT/mTOR signaling in human U87 cells assessed as down regulation of MTF1 gene expression at cytotoxic IC50 measured after 48 hrs relative to control
[16] = Inhibition of RTK/PI3K/AKT/mTOR signaling in human U87 cells assessed as down regulation of TEP1 gene expression at cytotoxic IC50 measured after 48 hrs relative to control
[17] = Inhibition of RTK/PI3K/AKT/mTOR signaling in human U87 cells assessed as down regulation of SMC4 gene expression at cytotoxic IC50 measured after 48 hrs relative to control
[18] = Inhibition of RTK/PI3K/AKT/mTOR signaling in human U87 cells assessed as up regulation of solute carrier family 12 member 8 gene expression at cytotoxic IC50 measured after 48 hrs relative to control
[19] = Inhibition of RTK/PI3K/AKT/mTOR signaling in human U87 cells assessed as down regulation of PGD gene expression at cytotoxic IC50 measured after 48 hrs relative to control
[20] = Inhibition of RTK/PI3K/AKT/mTOR signaling in human U87 cells assessed as up regulation of ankyrin repeat and zinc finger domain containing 1 gene expression at cytotoxic IC50 measured after 48 hrs relative to control
[21] = Inhibition of RTK/PI3K/AKT/mTOR signaling in human U87 cells assessed as down regulation of HSPA4L gene expression at cytotoxic IC50 measured after 48 hrs relative to control
[22] = Inhibition of RTK/PI3K/AKT/mTOR signaling in human U87 cells assessed as down regulation of KIF21A gene expression at cytotoxic IC50 measured after 48 hrs relative to control
[23] = Inhibition of RTK/PI3K/AKT/mTOR signaling in human U87 cells assessed as down regulation of FBXO30 gene expression at cytotoxic IC50 measured after 48 hrs relative to control
[24] = Inhibition of RTK/PI3K/AKT/mTOR signaling in human U87 cells assessed as down regulation of C3orf52 gene expression at cytotoxic IC50 measured after 48 hrs relative to control
[25] = Inhibition of RTK/PI3K/AKT/mTOR signaling in human U87 cells assessed as up regulation of LRP1 gene expression at cytotoxic IC50 measured after 48 hrs relative to control
[26] = Inhibition of RTK/PI3K/AKT/mTOR signaling in human U87 cells assessed as up regulation of TRIO and F-actin binding protein gene expression at cytotoxic IC50 measured after 48 hrs relative to control
[27] = Inhibition of RTK/PI3K/AKT/mTOR signaling in human U87 cells assessed as up regulation of transducin beta like 2 gene expression at cytotoxic IC50 measured after 48 hrs relative to control
[28] = Inhibition of RTK/PI3K/AKT/mTOR signaling in human U87 cells assessed as up regulation of RuvB like AAA ATPase 1 gene expression at cytotoxic IC50 measured after 48 hrs relative to control
[29] = Inhibition of RTK/PI3K/AKT/mTOR signaling in human U87 cells assessed as up regulation of NKX1-2 gene expression at cytotoxic IC50 measured after 48 hrs relative to control
[30] = Inhibition of RTK/PI3K/AKT/mTOR signaling in human U87 cells assessed as up regulation of L3MBTL3 gene expression at cytotoxic IC50 measured after 48 hrs relative to control
[31] = Inhibition of RTK/PI3K/AKT/mTOR signaling in human U87 cells assessed as down regulation of CD99L2 gene expression at cytotoxic IC50 measured after 48 hrs relative to control
[32] = Inhibition of RTK/PI3K/AKT/mTOR signaling in human U87 cells assessed as up regulation of serine hydroxymethyltransferase 2 gene expression at cytotoxic IC50 measured after 48 hrs relative to control

With `CC(=O)C(=NNc1ccccc1C#N)C(C)=O` as the compound, how does the log2FC [1] read?
The log2FC was 1.35.

What about the log2FC [2] of the same compound?
The log2FC was 0.447.

And the log2FC [3]?
The log2FC was -0.743.

What about the log2FC [4] of the same compound?
Its log2FC is 1.68.

What about the log2FC [5] of the same compound?
Its log2FC is 1.48.

What about the log2FC [6] of the same compound?
The log2FC was 2.27.

What about the log2FC [7] of the same compound?
Its log2FC is -0.959.

What about the log2FC [8] of the same compound?
The log2FC was 0.891.

What about the log2FC [9] of the same compound?
Its log2FC is 2.14.

And the log2FC [10]?
Its log2FC is -0.877.

What about the log2FC [11] of the same compound?
Its log2FC is 1.86.

And the log2FC [12]?
The log2FC was -0.755.

And the log2FC [13]?
Its log2FC is 0.765.

What about the log2FC [14] of the same compound?
The log2FC was 0.582.

And the log2FC [15]?
The log2FC was -0.909.

And the log2FC [16]?
The log2FC was -0.974.

And the log2FC [17]?
The log2FC was -1.

And the log2FC [18]?
Its log2FC is 1.24.

And the log2FC [19]?
Its log2FC is -0.625.

What about the log2FC [20] of the same compound?
Its log2FC is 0.686.

And the log2FC [21]?
Its log2FC is -2.17.

And the log2FC [22]?
Its log2FC is -1.12.

What about the log2FC [23] of the same compound?
Its log2FC is -0.967.

What about the log2FC [24] of the same compound?
Its log2FC is -1.16.

What about the log2FC [25] of the same compound?
Its log2FC is 2.48.

And the log2FC [26]?
The log2FC was 0.826.

What about the log2FC [27] of the same compound?
The log2FC was 0.72.

What about the log2FC [28] of the same compound?
The log2FC was 1.08.

What about the log2FC [29] of the same compound?
Its log2FC is 1.67.

What about the log2FC [30] of the same compound?
The log2FC was 2.11.

And the log2FC [31]?
Its log2FC is -1.45.

What about the log2FC [32] of the same compound?
Its log2FC is 0.929.
